# Experimental data from PubChem BioAssay (Tox21).
# Chains of the proteins cited; added tags and fusions are not shown. Lines headed by an entry give the natural chain unless they say otherwise; changes in a name come on top.
# UniProt P19793: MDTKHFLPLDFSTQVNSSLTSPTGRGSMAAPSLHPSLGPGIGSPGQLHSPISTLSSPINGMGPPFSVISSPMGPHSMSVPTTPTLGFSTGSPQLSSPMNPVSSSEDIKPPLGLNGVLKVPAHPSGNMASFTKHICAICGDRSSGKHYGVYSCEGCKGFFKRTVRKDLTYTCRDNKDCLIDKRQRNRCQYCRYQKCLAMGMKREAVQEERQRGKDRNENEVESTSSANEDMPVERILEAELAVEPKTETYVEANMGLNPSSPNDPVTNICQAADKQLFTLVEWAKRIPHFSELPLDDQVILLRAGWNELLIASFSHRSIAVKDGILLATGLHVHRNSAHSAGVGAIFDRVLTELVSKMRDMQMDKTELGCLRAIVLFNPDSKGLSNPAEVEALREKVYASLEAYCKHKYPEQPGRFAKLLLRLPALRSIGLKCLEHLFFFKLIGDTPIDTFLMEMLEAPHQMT
# Where “and” joins values, the source holds several entries; their conditions need not be identical. Equal entries are not always repeated. Inconclusive results, whose numbers are uncertain, are shown with a selection of clear calls. For part of these data: Where the call is inconclusive, the potency comes from a doubtful curve fit. Calls of active or inactive are those of the source. Unless noted, the call rests on the fitted dose curve; in most records, active means well fitted curve in the direction sought with a large enough effect in the repeat runs; inconclusive means weak or mixed curves; inactive means no such curve, though single readings can be large; an effect the other way counts as inactive or inconclusive.
# Biological target: Retinoic acid receptor RXR-alpha (Homo sapiens) (UniProt P19793)
# Assay: qHTS assay to identify small molecule agonists of the RXR signaling pathway (AID 1159527; calls by dose curve; further: nearly all actives have a fitted effect of over 35% in size)
# Details: HEK293T RXRa-UAS-bla, beta-lactamase ratio, 16 h; at 35.3 µM (top of the series)
# Procedure, shortened: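 Reporter activation is measured as beta-lactamase activity via FRET substrate cleavage (emission 460/530 nm) in HEK 293T cells expressing an RXR-alpha-driven bla construct, following 16 hr compound exposure at 37 C.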
# On the % scale 0 is the no-effect control and ±100 the full control effect.
row,SMILES,activation
1,Nc1ccn([C@H]2CC[C@@H](CO)O2)c(=O)n1,inactive: -1.84%
2,CCCCCCCCCCCCCCCC(=O)O,inconclusive: -0.173%
3,CC1(C)[C@@H]2CC[C@@]1(C)C(=O)C2,inactive: 8.05%

# Same assay, conditions: HEK293T RXRa-UAS-bla, beta-lactamase ratio, 16 h; at 76.8 µM (top of the series)
row,SMILES,activation
1,CCCOCC(C)O (configuration not stated),inactive: 6.9%
2,CCCCCCCCCCCCCCCC(=O)O,inconclusive: -19.7%
3,CCCC[P+](CCCC)(CCCC)CCCC,inactive: -17.8% and inactive: -18.6%
4,CC1CCC2CC1C2(C)C (configuration not stated),inactive: 11.9%
5,Cc1ccc(N)c([N+](=O)[O-])c1,inactive: -5.63%
6,Cc1ccc(S(=O)(=O)N=C=O)cc1,inactive: 7.05%
7,CC(C)CC(=O)CC(C)CC(C)C (configuration not stated),inactive: 6.72%
8,FC(F)(F)c1ccc(Cl)c(Cl)c1,inactive: -2.14%
9,O=C(O)C(=O)O,inactive: -19.7%
10,CCCCCCCCCCO,inactive: 11.7%
11,CC(=O)OCc1ccco1,inactive: 9.34%

# System: not listed separately
# Assay: qHTS assay to identify small molecule agonists of the RXR signaling pathway - cell viability counter screen (AID 1159529); further: nearly all actives have a fitted effect of over 50% in size; further: potency means the concentration at half of the fitted maximal effect
# Details: RXR-alpha-bla HEK293T viability, CellTiter-Glo, 16 h; series mostly up to 76.8 µM
# Procedure, shortened: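 Tox21 10K compounds were tested for cytotoxicity against GeneBLAzer RXR-alpha HEK 293T cells grown in 2% charcoal-stripped FBS. Exposure lasted 16 hr at 37 C, 5% CO2; viability read by CellTiter-Glo luminescence.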
row,SMILES,Potency
1,Nc1ccn([C@H]2CC[C@@H](CO)O2)c(=O)n1,"inconclusive: 38.9 µM [rising, partial curve, poor fit]"
2,Cc1ccccc1C(OCCN(C)C)c1ccccc1 (configuration not stated),"inconclusive: 38.9 µM [cytotoxic, partial curve] and inconclusive: 49 µM [cytotoxic, partial curve]"
3,CCCC[P+](CCCC)(CCCC)CCCC,"inconclusive: 24.5 µM [cytotoxic, partial curve] and inconclusive: 39.7 µM [cytotoxic, partial curve]"
4,Cc1ccc(C)c(OCCCC(C)(C)C(=O)O)c1,"inconclusive: 61.7 µM [cytotoxic, single point]"
5,ON=C1CCCCC1,inactive
6,O=C(OCCOCCOC(=O)c1ccccc1)c1ccccc1,"inconclusive: 17.3 µM [cytotoxic, partial curve, poor fit]"
7,CCCCCCCCCCCCOCCO,"inconclusive: 15.5 µM [cytotoxic, full curve]"

# System: not listed separately
# Assay: qHTS assay to identify small molecule agonists of the retinoic acid receptor (RAR) signaling pathway (AID 1159553); further: potency means the concentration at half of the fitted maximal effect
# Details: C3RL4 RARE luciferase reporter, agonist, 6 h; activation: at 73.3 µM (top of the series) unless noted
# Procedure, shortened: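 C3RL4 RARE-luciferase cells were seeded at 1,000/well and grown overnight at 37 C, then exposed to compounds for 6 hr at 37 C, 5% CO2. Luciferase reagent was added and luminescence was read after 30 min at room temperature.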
SMILES,Potency,activation
O=C(O)c1cc(N=Nc2ccc(S(=O)(=O)Nc3ccccn3)cc2)ccc1O,inactive,
ON=C1CCCCC1,"inconclusive: 54.5 µM [inhibitor, partial curve]",
O=C(OCCOCCOC(=O)c1ccccc1)c1ccccc1,,inconclusive: 0.558% [phenotype inactive]
CCCCCCCCCCCCOCCO,"inconclusive: 61.1 µM [activator, partial curve] and inconclusive: 29.8 µM [activator, single point]",
O=C(O)C(=O)O,"inconclusive: 4.87 µM [inhibitor, single point]",
CC(=O)OCc1ccco1,"inactive and inconclusive: 77 µM [inhibitor, single point]",

# Entries of single compounds from above:
# `ON=C1CCCCC1` as listed: Potency: inconclusive: 54.5 µM [inhibitor, partial curve]
# `O=C(O)C(=O)O` as listed: Potency: inconclusive: 4.87 µM [inhibitor, single point]
